Data from article PMC7819943, “Rice protein-binding microarrays: a tool to detect cis-acting elements near promoter regions in rice”.
The other results are listed elsewhere or left out.

molecular target: T1, OsSMF1 (Oryza sativa, UniProt Q6ZLB0 1-436); test: protein-binding microarray (RPBM); PBS, 2% BSA, 51.3 ng/ul salmon testes DNA, 50 uM zinc acetate, 200 nM TF, 25 C, 1 h; high values mean tight binding; conditions: protein: recombinant; tags: N-terminal polyhistidine and DsRed monomer fusion (pET32a); chain copies: 2; label: CyDye5-dUTP incorporated in the synthesized complementary strand; 3' TTTTT single-stranded linker to array surface; dsDNA, one strand shown
T1 sequence: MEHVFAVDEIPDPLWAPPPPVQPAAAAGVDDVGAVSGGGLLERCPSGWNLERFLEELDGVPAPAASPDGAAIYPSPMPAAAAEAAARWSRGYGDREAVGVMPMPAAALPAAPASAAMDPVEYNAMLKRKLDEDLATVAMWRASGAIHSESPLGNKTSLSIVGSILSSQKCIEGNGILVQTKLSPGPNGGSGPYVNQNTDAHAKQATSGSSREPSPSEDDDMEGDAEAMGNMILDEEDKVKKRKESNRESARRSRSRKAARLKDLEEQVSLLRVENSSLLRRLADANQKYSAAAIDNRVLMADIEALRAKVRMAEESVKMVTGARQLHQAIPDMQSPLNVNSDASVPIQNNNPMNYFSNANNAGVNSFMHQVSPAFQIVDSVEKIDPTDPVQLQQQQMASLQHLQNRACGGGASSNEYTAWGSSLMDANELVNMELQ
Method in brief: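 A custom Agilent array was converted to double-stranded form by primer extension with Cy5-dUTP and blocked with 2% BSA. Protein at 200 nM in PBS with 2% BSA, salmon testes DNA and 50 µM zinc acetate was applied for 1 h at 25 °C, followed by washing. The proteins were polyhistidine–DsRed N-terminal fusions of transcription factors, expressed in E. coli BL21-CodonPlus and Ni–NTA-purified. The binding signal is per-feature fluorescence intensity (arbitrary units) from an Axon 4000B scanner.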

| Sequence | binding signal |
| --- | --- |
| CCCCTCCTCCCCTTCTCTCCCCTCTCCTCCTCGCTTCCGGCGGAGTCACCTAGTGCAG | 3950 fluorescence intensity (a.u.) |
| GGTAGGGTTGGGATGGGATGTGCAAGTAACCCGGGTGGATCGGAGTCACCTAGTGCAG | 4060 fluorescence intensity (a.u.) |
| CGTGCGCGTGGCGTGGCGTGGCGTGACGCGGCGATGGCGGCGGAGTCACCTAGTGCAG | 9130 fluorescence intensity (a.u.) |
| TTAGTCAAAACCGTTGAGGGATTCAATTTGCACTAATTTTCGGAGTCACCTAGTGCAG | 27600 fluorescence intensity (a.u.) |
| TATAACTCGCAGCCCATCTCACGGCGAGGAGCGAGCTAAACGGAGTCACCTAGTGCAG | 19000 fluorescence intensity (a.u.) |
| TGTGTATTCATAGGGGCGAGTGAGCGTGCGTTGTGAGTATCGGAGTCACCTAGTGCAG | 3360 fluorescence intensity (a.u.) |
| CTTGTCTAGTGGGCCTCTATGAAACGTGGCCCAACTTCCCCGGAGTCACCTAGTGCAG | 4560 fluorescence intensity (a.u.) |
| CATCCAGCTAGTTGTATATACTTACTCCATCTGTCCAAAACGGAGTCACCTAGTGCAG | 3160 fluorescence intensity (a.u.) |
| TTCTTGGGGCTGGAGAGGGTGGGGATGGTGGTGCGGATGCCGGAGTCACCTAGTGCAG | 3560 fluorescence intensity (a.u.) |
| GCTCCATCCCGAGGCAGGAGGCGGAGGAAGGGCAGGGCGGCGGAGTCACCTAGTGCAG | 27600 fluorescence intensity (a.u.) |
| TTTGTTGTACTAGGATGTGTCACATCCGGTACTAGGTTGGCGGAGTCACCTAGTGCAG | 4570 fluorescence intensity (a.u.) |
| GCTTTGCCACGCAGATCGCGGTCGTTTTCAATCGCACCGGCGGAGTCACCTAGTGCAG | 5280 fluorescence intensity (a.u.) |
| TTGCTCACTTGTTCTGTTCTTGCCCGGTCAACTTGCGACGCGGAGTCACCTAGTGCAG | 3450 fluorescence intensity (a.u.) |
| TGAACGTTTTGATGTGTTCACACATTACACGTTACTAGTACGGAGTCACCTAGTGCAG | 3700 fluorescence intensity (a.u.) |
| CTCGGGGCAAACTTGGGACCCACGCGTCAGCCTTTTCTTTCGGAGTCACCTAGTGCAG | 5480 fluorescence intensity (a.u.) |
| TATTGATTTCCACTATTCCCTTTGTAATCTGTGATTTCCACGGAGTCACCTAGTGCAG | 3380 fluorescence intensity (a.u.) |
| GAAATTCGCGGATGCCGCGTGCGCGTCATACCCTGAACCTCGGAGTCACCTAGTGCAG | 6200 fluorescence intensity (a.u.) |
| GTTCATGAGTACCGAAAGGTGGATTCTTTTCAGTTTCTTGCGGAGTCACCTAGTGCAG | 3750 fluorescence intensity (a.u.) |
| CGTCCGATCCACCGATTTGCCACGAATTGCTGTTATTGTTCGGAGTCACCTAGTGCAG | 3400 fluorescence intensity (a.u.) |
| GGCGTTGGCTTGGCCCGGCGGCGGTGATGTGGCGCGTGACCGGAGTCACCTAGTGCAG | 7030 fluorescence intensity (a.u.) |
| TACCGTTCATCCACGTCTCATCTAATCTCATCCGTCCGCTCGGAGTCACCTAGTGCAG | 5400 fluorescence intensity (a.u.) |
| CCAGTGAGCCACGGCTACCCATCTGGATCCAGCTCCTCCACGGAGTCACCTAGTGCAG | 3610 fluorescence intensity (a.u.) |
| GCCCCACTCCCAACCCATCTCCACCGTCCGTCTCCATCCGCGGAGTCACCTAGTGCAG | 3610 fluorescence intensity (a.u.) |

Reformatted as comma-separated lines: part of the list above.
Sequence,binding signal
TTTGTTGTACTAGGATGTGTCACATCCGGTACTAGGTTGGCGGAGTCACCTAGTGCAG,4570 fluorescence intensity (a.u.)
GCTTTGCCACGCAGATCGCGGTCGTTTTCAATCGCACCGGCGGAGTCACCTAGTGCAG,5280 fluorescence intensity (a.u.)
TTGCTCACTTGTTCTGTTCTTGCCCGGTCAACTTGCGACGCGGAGTCACCTAGTGCAG,3450 fluorescence intensity (a.u.)
TGAACGTTTTGATGTGTTCACACATTACACGTTACTAGTACGGAGTCACCTAGTGCAG,3700 fluorescence intensity (a.u.)
CTCGGGGCAAACTTGGGACCCACGCGTCAGCCTTTTCTTTCGGAGTCACCTAGTGCAG,5480 fluorescence intensity (a.u.)
TATTGATTTCCACTATTCCCTTTGTAATCTGTGATTTCCACGGAGTCACCTAGTGCAG,3380 fluorescence intensity (a.u.)
